The list does not hold the whole screen: it gathers tests that were run many times, whatever their T/C, doses with no T/C, and many T/C values between a quarter and a half above the control. Further doses and runs are listed elsewhere. T/C gives the treated animals as a percentage of the vehicle group. Some doses have a count of surviving animals in place of a T/C: the source files T/C as zero there, which appears to mark a toxic dose or a test without result, not a measured value. Some survivor counts are full or nearly so, which does not show that the dose was tolerated: the source hardly ever lists a survival T/C far under the control, and the zero likely stands for such cases as well. Counts of survivors are from the toxicity check (mostly the fifth day) where no day follows; animals may have died later. Schedule codes are those of the source, taken here to give the interval after Q, in days (D) or hours (H), and the number of doses after X. Some doses were run more than once; their values stand side by side, smallest first. Where survival is the endpoint, this PubChem deposit counts one and a half times the control or more as active, and values a quarter to a half above the control carry no call in these data; other NCI protocols may use other cut-offs. Signs of the kind (2×) stand for listed records that agree. Some T/C values are followed by the survivors on the day toxicity was checked, most often the fifth; where none is given, no animal had died by that day.
System: P388 leukemia ip, CD2F1 mice, survival T/C
Experiment: NCI In Vivo Anticancer Drug Screen. Data for tumor model P388 Leukemia (intraperitoneal) in CD2F1 (CDF1) mice
Settings: T/C endpoint: median survival time, higher T/C = longer survival
[1] = dose: 400.0 mg/kg/injection, schedule: Q04DX003 (ip), vehicle: Klucel (hydroxypropylcellulose) (HPC)
[2] = dose: 240.0 mg/kg/injection, schedule: Q01DX005 (ip), vehicle: saline with Tween-80
[3] = dose: 50.0 mg/kg/injection, schedule: Q01DX009 (ip), vehicle: distilled water + alcohol
[4] = dose: 200.0 mg/kg/injection, schedule: Q01DX005 (ip), vehicle: saline with Tween-80
[5] = dose: 100.0 mg/kg/injection, schedule: Q01DX009 (ip), vehicle: saline with Tween-80
[6] = dose: 200.0 mg/kg/injection, schedule: Q01DX009 (ip), vehicle: saline with Tween-80
[7] = dose: 200.0 mg/kg/injection, schedule: Q01DX005 (ip), vehicle: saline
[8] = dose: 200.0 mg/kg/injection, schedule: Q01DX005 (ip), vehicle: Klucel (hydroxypropylcellulose) (HPC)
[9] = dose: 100.0 mg/kg/injection, schedule: Q01DX005 (ip), vehicle: Klucel (hydroxypropylcellulose) (HPC)
[10] = dose: 50.0 mg/kg/injection, schedule: Q01DX009 (ip), vehicle: saline
[11] = dose: 200.0 mg/kg/injection, schedule: Q01DX009 (ip), vehicle: saline
[12] = dose: 400.0 mg/kg/injection, schedule: Q04DX002 (ip), vehicle: saline with Tween-80

In the case of `CN1CCCC(O)(C(=O)c2ccccc2)C1` (centres undefined), the survivor count [1] is reported as 2 of 6.

`O=C1NC(=O)C([N+](=O)[O-])C(=O)N1` was tested, and the survivor count (dose: 100.0 mg/kg/injection, schedule: Q01DX001 (ip), vehicle: saline) was 1 of 6 and 2 of 6, the survivor count (dose: 200.0 mg/kg/injection, schedule: Q01DX001 (ip), vehicle: saline) was 0 of 6 and the survivor count (dose: 400.0 mg/kg/injection, schedule: Q01DX001 (ip), vehicle: saline) was 0 of 6.

In the case of `CCCCCCC(=O)c1c(O)c2ccccc2oc1=O`, the survivor count [2] is reported as 1 of 6.

For `COc1ccc2c(c1)C(Br)CCCC2=O` (centres undefined), the T/C [3] was 99 [5 of 6 alive], 107, 118 % of control, the survivor count [3] was 6 of 6 and the T/C (dose: 100.0 mg/kg/injection, schedule: Q01DX009 (ip), vehicle: distilled water + alcohol) was 99, 106, 107, 122 % of control. The T/C (dose: 200.0 mg/kg/injection, schedule: Q01DX009 (ip), vehicle: distilled water + alcohol) was 108, 111 (2×), 127 % of control.

In the case of `CC1C2=C(CN(C)CC2)c2ccccc21` (centres undefined), the survivor count (dose: 50.0 mg/kg/injection, schedule: Q01DX005 (ip), vehicle: saline with Tween-80) is reported as 1 of 6, the survivor count (dose: 100.0 mg/kg/injection, schedule: Q01DX005 (ip), vehicle: saline with Tween-80) is reported as 0 of 6 and the survivor count [4] is reported as 0 of 6.

For `c1ccc(-c2c3ccccc3c(-c3ccccc3)c3c(-c4ccccc4)c4ccccc4c(-c4ccccc4)c23)cc1`, the survivor count (dose: 120.0 mg/kg/injection, schedule: Q01DX005 (ip), vehicle: saline with Tween-80) was 6 of 6 and the survivor count [2] was 6 of 6.

In the case of `NNc1nn2cnnc2c2ccccc12`, the survivor count (dose: 100.0 mg/kg/injection, schedule: Q04DX002 (ip), vehicle: saline) is reported as 6 of 6 and the survivor count (dose: 200.0 mg/kg/injection, schedule: Q04DX002 (ip), vehicle: saline) is reported as 5 of 6.

In the case of `CN1CCC/C1=C\C(=O)c1ccco1`, the survivor count (dose: 120.0 mg/kg/injection, schedule: Q01DX005 (ip), vehicle: Klucel (hydroxypropylcellulose) (HPC)) is reported as 0 of 6 and the survivor count (dose: 240.0 mg/kg/injection, schedule: Q01DX005 (ip), vehicle: Klucel (hydroxypropylcellulose) (HPC)) is reported as 0 of 6.

For `NC(=S)N/N=C\c1nccc2ccc(N)cc12`, the survivor count [5] was 6 of 6 and the survivor count [6] was 4 of 6.

`CCN(CC)CCOC(=O)C(c1ccccc1)C1(O)CCCCC1` (centres undefined) was tested, and the survivor count [7] was 0 of 5.

For `O=C1OC(=O)C2=C1C1c3ccccc3C2c2ccccc21`, the survivor count [8] was 1 of 5.

With `NP(N)(=O)NC(=O)c1ccc(F)cc1` the survivor count [4] was 0 of 5.

For `CN1CCCC2c3ccccc3CCC21` (centres undefined), the survivor count (dose: 50.0 mg/kg/injection, schedule: Q04DX003 (ip), vehicle: Klucel (hydroxypropylcellulose) (HPC)) was 5 of 6, the survivor count (dose: 100.0 mg/kg/injection, schedule: Q04DX003 (ip), vehicle: Klucel (hydroxypropylcellulose) (HPC)) was 0 of 6 and the survivor count (dose: 200.0 mg/kg/injection, schedule: Q04DX003 (ip), vehicle: Klucel (hydroxypropylcellulose) (HPC)) was 0 of 6. For the same molecule, the survivor count [1] was 0 of 6.

For `CCOc1c(N=Nc2ccc(C)cc2)c(C)nn1C(N)=S`, the survivor count (dose: 60.0 mg/kg/injection, schedule: Q01DX005 (ip), vehicle: Klucel + Tween-80) was 0 of 6, the survivor count (dose: 120.0 mg/kg/injection, schedule: Q01DX005 (ip), vehicle: Klucel + Tween-80) was 0 of 6 and the survivor count (dose: 240.0 mg/kg/injection, schedule: Q01DX005 (ip), vehicle: Klucel + Tween-80) was 0 of 6.

`O=C(Nc1ccc(C2=NCCN2)cc1)c1cc2ccc(C3=NCCN3)cc2[nH]1` was tested, and the survivor count (dose: 100.0 mg/kg/injection, schedule: Q04DX003 (ip), vehicle: suspension in saline) was 3 of 6, the survivor count (dose: 200.0 mg/kg/injection, schedule: Q04DX003 (ip), vehicle: suspension in saline) was 3 of 6 and the survivor count (dose: 400.0 mg/kg/injection, schedule: Q04DX003 (ip), vehicle: suspension in saline) was 0 of 6.

`CCC1OC(OC)C=CC1=O` (centres undefined) was tested, and the T/C (dose: 50.0 mg/kg/injection, schedule: Q01DX005 (ip), vehicle: saline) was 137 % of control, the T/C [9] was 129 % of control and the T/C (dose: 100.0 mg/kg/injection, schedule: Q01DX005 (ip), vehicle: saline) was 137 % of control. The survivor count [7] was 0 of 6.

`COc1cccc2c1[C@H]1CO[C@H]3C4C[C@H](C(=O)O)C([C@@H](C2)N13)N4C` (some centres undefined) was tested, and the T/C (dose: 1.25 mg/kg/injection, schedule: Q01DX005 (ip), vehicle: water) was 125 % of control, the T/C (dose: 2.5 mg/kg/injection, schedule: Q01DX005 (ip), vehicle: water) was 129, 140, 143 % of control and the T/C (dose: 5.0 mg/kg/injection, schedule: Q01DX005 (ip), vehicle: water) was 145, 146, 149, 179 % of control. For the same molecule, the survivor count (dose: 20.0 mg/kg/injection, schedule: Q01DX005 (ip), vehicle: water) was 5 of 6 and the survivor count (dose: 40.0 mg/kg/injection, schedule: Q01DX005 (ip), vehicle: water) was 0 of 6 and 4 of 6.

In the case of `Cn1cccc([N+](=O)[O-])c1=O`, the T/C [10] is reported as 99 [5 of 6 alive], 105, 109 % of control, the survivor count [10] is reported as 2 of 6 and the survivor count (dose: 90.0 mg/kg/injection, schedule: Q01DX009 (ip), vehicle: Klucel (hydroxypropylcellulose) (HPC)) is reported as 0 of 6. For the same molecule, the survivor count (dose: 100.0 mg/kg/injection, schedule: Q01DX009 (ip), vehicle: saline) was 0 of 6, the survivor count (dose: 135.0 mg/kg/injection, schedule: Q01DX009 (ip), vehicle: Klucel (hydroxypropylcellulose) (HPC)) was 0 of 6 and the survivor count [11] was 0 of 6.

With `CCCCCCCCCc1ccc(OCCOCCOCCOCCOCCOCCOCCOCCOCCOC(C)N2CCCC2=O)cc1` (centres undefined) the survivor count [5] was 1 of 6, the survivor count [6] was 0 of 6 and the survivor count (dose: 400.0 mg/kg/injection, schedule: Q01DX009 (ip), vehicle: saline with Tween-80) was 0 of 6.

In the case of `NC(N)=NCCCCCC(=O)O`, the survivor count [11] is reported as 3 of 6.

In the case of `C/C(=N\N=C(\N)N1CCOCC1)c1ccc2c(c1)Cc1ccccc1-2`, the survivor count (dose: 200.0 mg/kg/injection, schedule: Q04DX002 (ip), vehicle: saline with Tween-80) is reported as 0 of 6 and the survivor count [12] is reported as 0 of 6.

With `Nc1ccc(S(=O)(=O)c2ccc(N)cc2)cc1` the T/C (dose: 12.5 mg/kg/injection, schedule: Q01DX009 (ip), vehicle: saline with Tween-80) was 89, 96, 100, 103, 124 % of control, the T/C (dose: 25.0 mg/kg/injection, schedule: Q01DX009 (ip), vehicle: saline with Tween-80) was 96, 99, 102, 103, 108 % of control and the T/C (dose: 50.0 mg/kg/injection, schedule: Q01DX009 (ip), vehicle: saline with Tween-80) was 98, 105 (3×), 116 % of control. For the same molecule, the T/C [5] was 105 (2×), 106, 109, 114 % of control, the survivor count (dose: 150.0 mg/kg/injection, schedule: Q01DX009 (ip), vehicle: saline with Tween-80) was 4 of 6 and the survivor count [8] was 1 of 5. The survivor count (dose: 400.0 mg/kg/injection, schedule: Q01DX005 (ip), vehicle: Klucel (hydroxypropylcellulose) (HPC)) was 0 of 5.

With `CCN(CC)CCOc1ccc(C2c3cc(OC)ccc3CC2Cc2cccc(Cl)c2)cc1` (centres undefined) the survivor count [9] was 4 of 6 and the survivor count [8] was 2 of 6.

In the case of `O=C1NC(N(CCCl)CCCl)=NC1(c1ccccc1)c1ccccc1`, the survivor count [12] is reported as 3 of 6.
